Measured values from paper PMC8386835.
Results are given in words; binding and its absence hold for the method and conditions named. Binding can be weak; no strength is given. Where a sequence is shown, tags or fusion partners need not be part of it. For part of these data: In cells and extracts the contact can be indirect.

B1: AD-MTL5-C (371–475 aa) (domain or fragment, UniProt Q9WTJ6-1 371-475)
chain: EESPERKMLMSTPHYMEPGDFESSHYLSPAKFSGPPKLRKNRQAFSCISWEVVEATCACLLAQGEEAEQEHCSPSLAEQMILEEFGRCLSQILHIEFKSKGLKIE
B2: AD-MTL5-C3 (443–475 aa) (domain or fragment, UniProt Q9WTJ6-1 443-475)
chain: SPSLAEQMILEEFGRCLSQILHIEFKSKGLKIE
B3: AD-MTL5-C2 (419–442 aa) (domain or fragment, UniProt Q9WTJ6-1 419-442)
chain: SWEVVEATCACLLAQGEEAEQEHC
B4: AD-MTL5-C1 (371–418 aa) (domain or fragment, UniProt Q9WTJ6-1 371-418)
chain: EESPERKMLMSTPHYMEPGDFESSHYLSPAKFSGPPKLRKNRQAFSCI
B5: AD-MTL5 (protein, UniProt Q9WTJ6-1 1-475)
chain: MEDALLGAMTGPEDELGAELFGSERVFADGLALSPAGGAADRDELPVLADAYLGATEPGEPLLRALSPPPGAEVPAALLGDFPGLPELRSPDDAAPPPAYSVHVLSSLLPGARGPALLPLSAGVRVIPVEIKEAGGSVPGGSPEDAAFQAPLAQESCCKFPSSQEAEEASSCPRKKDSSPMVICQLKGGAQMLCIDNCGARELKALHLLPQYDDQSSFPQSELPKPMTTLVGRLLPVPAKLNLITQVDNGALPSAVNGAAFPSGPALQGPPKITLSGYCDCFSSGDFCNSCSCNNLRHELERFKAIKACLDRNPEAFQPKMGKGRLGAAKLRHSKGCNCKRSGCLKNYCECYEAKIMCSSICKCIACKNYEESPERKMLMSTPHYMEPGDFESSHYLSPAKFSGPPKLRKNRQAFSCISWEVVEATCACLLAQGEEAEQEHCSPSLAEQMILEEFGRCLSQILHIEFKSKGLKIE
B6: AD-MTL5-N (1–250 aa) (domain or fragment, UniProt Q9WTJ6-1 1-250)
chain: MEDALLGAMTGPEDELGAELFGSERVFADGLALSPAGGAADRDELPVLADAYLGATEPGEPLLRALSPPPGAEVPAALLGDFPGLPELRSPDDAAPPPAYSVHVLSSLLPGARGPALLPLSAGVRVIPVEIKEAGGSVPGGSPEDAAFQAPLAQESCCKFPSSQEAEEASSCPRKKDSSPMVICQLKGGAQMLCIDNCGARELKALHLLPQYDDQSSFPQSELPKPMTTLVGRLLPVPAKLNLITQVDNG
B7: AD-MTL5-M (251–370 aa) (domain or fragment, UniProt Q9WTJ6-1 251-370)
chain: ALPSAVNGAAFPSGPALQGPPKITLSGYCDCFSSGDFCNSCSCNNLRHELERFKAIKACLDRNPEAFQPKMGKGRLGAAKLRHSKGCNCKRSGCLKNYCECYEAKIMCSSICKCIACKNY

molecular target: T1, MYC-MTL5 (mouse) (UniProt Q9WTJ6); experiment: co-IP; HEK293T co-transfected with MYC-tagged MTL5 and GFP-tagged partner; NP-40 buffer lysate, Myc-Tag magnetic beads, overnight at 4°C; Western blot
T1 sequence: B5 chain

Molecule	binding
GFP-LIN9 (mouse)	binds

molecular target: BD-LIN9-C (341–559 aa) (mouse); experiment: two-hybrid; AD prey in Y187 mated with BD bait in AH109; growth on -LW, -LWH with 5 mM 3-AT and -LWHA plates at 30°C for 3-5 days

Molecule	binding
B1	binds
B2	binds
B3	no binding
B4	no binding

molecular target: BD-LIN9 (mouse); experiment: as above

Molecule	binding
B5	binds
B1	binds
B6	no binding
B7	no binding
